From PMC13590098
No constants are given. Whether binding was seen depends on the method and setting. Some results given as binding are weak or reduced against the parent protein; the word gives no strength.

Protein sequences, listed by entry. Tags and fused reporters are not part of them. Residues count along the entry.
UniProt P08476, residues 311-426: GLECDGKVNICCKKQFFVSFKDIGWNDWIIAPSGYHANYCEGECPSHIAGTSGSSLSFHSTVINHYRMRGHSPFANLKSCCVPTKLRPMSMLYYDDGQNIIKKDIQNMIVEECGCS
UniProt P19883, residues 30-317: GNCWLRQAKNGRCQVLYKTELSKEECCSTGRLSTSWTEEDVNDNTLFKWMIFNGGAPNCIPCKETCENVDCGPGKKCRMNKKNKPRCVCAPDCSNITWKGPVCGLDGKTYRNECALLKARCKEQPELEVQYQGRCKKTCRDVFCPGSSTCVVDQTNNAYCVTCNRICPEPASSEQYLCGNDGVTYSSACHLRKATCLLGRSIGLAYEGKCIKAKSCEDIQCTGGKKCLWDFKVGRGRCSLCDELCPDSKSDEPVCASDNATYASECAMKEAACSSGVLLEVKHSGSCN

Experiments:
[1] = target: activin A (UniProt P08476); test: heparin affinity chromatography of the purified complex, fractions by Western blot; both purified
[2] = target: T1, GDF11 (UniProt O95390); test: heparin affinity chromatography of the purified complex, fractions by Western blot; complexes formed from ligand and excess Fst288 (1:2.5 molar ratio, 4 °C, few hours) and purified on Superdex 200; 100 μg applied to a 1 ml HiTrap column, linear gradient up to 2 M NaCl over 120 column volumes; both purified
T1 sequence: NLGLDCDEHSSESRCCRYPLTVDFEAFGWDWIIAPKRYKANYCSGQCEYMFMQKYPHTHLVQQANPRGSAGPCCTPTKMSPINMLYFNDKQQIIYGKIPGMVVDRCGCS

- binding [1]: binds
- binding [2]: binds
Substance: follistatin 288 (from UniProt P19883-2 30-317)
